Experimental findings from article PMC7195483 are described below.

No constants are given. Whether binding was seen depends on the method and setting. For some assays here: Binding calls can cover weak binding; strength is not graded here. For some assays here: Sequences can lack the tags named with a protein.

Common to all, as to assay: two-hybrid; Gal4 BD fusions with Gal4 AD fusions in reporter strains PJ69-4A or CG1945; HIS3 and ADE2 reporters, scored after 2 or 3 days; 5 or 20 mM 3-AT for stringency; also in PJ69-4A with wild-type or F250A Swd2 (reduced in F250A)
The target of experiment [1] is T1, Sdc1 two-hybrid construct tested with the 14-CTD repeat construct (S. cerevisiae) (UniProt Q03323).
T1 sequence: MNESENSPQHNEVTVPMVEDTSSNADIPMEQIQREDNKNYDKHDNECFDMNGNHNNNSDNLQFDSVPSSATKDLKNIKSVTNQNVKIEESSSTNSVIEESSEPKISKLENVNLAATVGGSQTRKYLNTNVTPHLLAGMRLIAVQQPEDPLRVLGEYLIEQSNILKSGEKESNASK

The target in experiment [2] is T2, Swd2 two-hybrid construct tested with the 14-CTD repeat construct (S. cerevisiae) (UniProt P36104).
T2 sequence: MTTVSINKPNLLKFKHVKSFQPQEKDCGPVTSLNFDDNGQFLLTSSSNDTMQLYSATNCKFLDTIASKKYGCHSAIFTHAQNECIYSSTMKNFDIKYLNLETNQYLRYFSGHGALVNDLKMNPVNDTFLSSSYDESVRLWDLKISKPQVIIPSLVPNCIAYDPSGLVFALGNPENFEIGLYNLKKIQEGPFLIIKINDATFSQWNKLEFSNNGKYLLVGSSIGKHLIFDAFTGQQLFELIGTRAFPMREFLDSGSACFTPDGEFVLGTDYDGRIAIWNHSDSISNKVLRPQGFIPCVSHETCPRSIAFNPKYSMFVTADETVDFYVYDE

Experiment [3] deals with T3, full length Set1 fused to the Gal4 DNA binding domain (S. cerevisiae) (UniProt P38827).
T3 sequence: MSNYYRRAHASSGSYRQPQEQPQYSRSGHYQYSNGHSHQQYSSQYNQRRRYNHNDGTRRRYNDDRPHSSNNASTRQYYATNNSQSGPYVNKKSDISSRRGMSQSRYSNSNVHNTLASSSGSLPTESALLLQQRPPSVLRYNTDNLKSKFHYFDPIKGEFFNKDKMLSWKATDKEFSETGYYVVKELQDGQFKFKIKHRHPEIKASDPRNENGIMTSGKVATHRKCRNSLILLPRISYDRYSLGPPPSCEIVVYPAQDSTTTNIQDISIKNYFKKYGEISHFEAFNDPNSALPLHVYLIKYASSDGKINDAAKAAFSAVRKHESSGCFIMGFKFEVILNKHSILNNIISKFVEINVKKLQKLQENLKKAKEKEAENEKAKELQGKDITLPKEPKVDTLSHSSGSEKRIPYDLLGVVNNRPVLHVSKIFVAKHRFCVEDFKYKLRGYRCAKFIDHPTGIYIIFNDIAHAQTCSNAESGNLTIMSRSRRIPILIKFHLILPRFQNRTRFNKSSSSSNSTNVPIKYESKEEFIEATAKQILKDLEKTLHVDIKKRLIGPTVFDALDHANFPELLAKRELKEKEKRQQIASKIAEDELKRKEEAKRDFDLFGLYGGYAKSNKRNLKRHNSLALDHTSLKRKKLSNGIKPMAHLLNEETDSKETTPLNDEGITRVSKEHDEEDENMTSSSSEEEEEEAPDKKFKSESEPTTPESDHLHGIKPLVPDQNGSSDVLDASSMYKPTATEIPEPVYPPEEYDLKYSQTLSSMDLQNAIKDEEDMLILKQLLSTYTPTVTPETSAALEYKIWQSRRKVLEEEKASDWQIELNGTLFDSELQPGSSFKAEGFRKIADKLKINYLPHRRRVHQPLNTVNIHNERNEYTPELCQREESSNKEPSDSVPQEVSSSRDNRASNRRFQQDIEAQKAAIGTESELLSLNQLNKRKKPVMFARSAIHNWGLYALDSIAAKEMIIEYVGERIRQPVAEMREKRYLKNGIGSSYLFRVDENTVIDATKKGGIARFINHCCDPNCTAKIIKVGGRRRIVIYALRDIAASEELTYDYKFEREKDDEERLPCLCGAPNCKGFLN

Experiment [4] concerns the target T4, Shg1 two-hybrid construct tested with the 14-CTD repeat construct (S. cerevisiae) (UniProt P38337).
T4 sequence: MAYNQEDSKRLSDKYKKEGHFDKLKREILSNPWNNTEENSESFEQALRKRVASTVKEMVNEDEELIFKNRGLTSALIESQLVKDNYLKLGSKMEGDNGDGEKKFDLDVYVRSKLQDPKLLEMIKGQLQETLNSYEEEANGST

In experiment [5] the target is T5, Spp1 two-hybrid construct tested with the 14-CTD repeat construct (S. cerevisiae) (UniProt Q03012).
T5 sequence: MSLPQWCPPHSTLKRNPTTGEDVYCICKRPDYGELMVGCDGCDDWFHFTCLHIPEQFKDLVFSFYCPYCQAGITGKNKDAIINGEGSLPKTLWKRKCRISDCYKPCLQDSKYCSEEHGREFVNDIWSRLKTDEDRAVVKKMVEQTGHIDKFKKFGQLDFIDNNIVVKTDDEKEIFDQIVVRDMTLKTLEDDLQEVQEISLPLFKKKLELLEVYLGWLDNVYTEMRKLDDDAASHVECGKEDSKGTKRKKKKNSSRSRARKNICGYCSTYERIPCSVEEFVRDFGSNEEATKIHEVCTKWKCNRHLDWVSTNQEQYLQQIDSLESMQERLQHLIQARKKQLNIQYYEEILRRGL

In the case of “14-CTD repeat fragment of Rpb1 fused to the Gal4 activation domain (S. cerevisiae) (domain or fragment)”, the binding entry in experiment [1] is listed as “no binding”; in experiment [2] it was “no binding”; in experiment [3] it was “binds”; in experiment [4] it was “no binding”; in experiment [5] it was “no binding”.
